Experimental data: paper PMC10163288
The other results are listed elsewhere or left out.

B1: il2ra_site2_3nfp_sap_15_mot_HHH_b2_06897_000000042_0001_40_57_H_._493fd54309310d9249ba1f7ad6a52a72_0001_1_af2_0001_0000300025_0000001_0_0001 (protein)
chain: SSSSSEFERRLEELLKELEELVRQGNDEEFRRVAAEIAHLAFEGNDSEAYFRLAELAYEFISSSS
B2: il2ra_site1_2b5i_normal_mot_HHH_b1_01507_000000251_0001_20_36_H_._HHH_b2_06566_af2_0001_0000100007_0000001_0_af2pred_dldesign_0_af2pred (protein)
chain: SSSSNPELAKRIREAVEEATRLFAAGREEEARAVLEAARRLAEENNAHGWARFLEACLKSISSSS
B3: il2ra_site2_2erj_sap_22_mot_HHH_b1_05634_000000106_0001_21_37_H_._HHH_b2_05401_0001_0000100002_0000001_0_0001 (protein)
chain: SSSSLREAYELAARALARLAEAAENNDEELLERIAEEVQKELKELGTPDAAEMLEEESEAQSSSS
B4: il2ra_site1_3nfp_sap_14_mot_7a4252a17c26caee427851ffd8bc664f_0001_000000055_0001_1_12_H_._HHH_b1_02810_af2_0001_0000200009_0000001_0_0001_af2pred_0001_af2pred_1 (protein)
chain: SSSSSSAVHEFTELLRRAREALKEGDEELVEEILERLRELAERRNDPIARRAVEWLERKGSSSSS
B5: il2ra_site2_2erj_sap_13_mot_HHH_b1_03596_000000047_0001_40_56_H_._ems_3hM_1289_0001_0000200003_0000001_0_0001_af2pred_0001_af2pred (protein)
chain: SSSSDWRREVRELLRRVDEAAKRGNPEEAEELLEEAERIAEEADNRSAERFIRESKRLVRLSSSS
B6: il2ra_site2_3nfp_sap_26_mot_HHH_b2_07749_000000092_0001_22_39_H_._7f845fc392f084dc2c3019ce91433427_0001_1_af2_0001_0000300017_0000001_0_0001 (protein)
chain: SSSSSDQEFEIVVEYAKAAIALRNDPELLEQVEELEEEYREEGDPRYLELIRRILAELARSSSSS
B7: il2ra_site2_2erj_normal_mot_HHH_b2_03173_af2_000000175_0001_41_57_H_._HHH_b2_06363_0001_0000200039_0000001_0 (protein)
chain: SSSSDEYLRRLFELANLVLHLLWEGDEEEVEELLEELRKLAEEAQSEAAREVVERAEEELSSSSS
B8: il2ra_site1_1z92_normal_mot_HHH_b2_00385_000000257_0001_1_19_H_._HHH_b1_02934_0001_0000100001_0000001_0_af2pred_0001_af2pred_1 (protein)
chain: SSSSNEEELLKKLLKALENAIEKGNEKRFEKLVRFIELLAEELGDEEIERLLEELRREFHSSSSS
B9: il2ra_site1_2b5i_normal_mot_ems_3hM_3687_af2_000000248_0001_45_64_H_._HHH_b1_08112_af2_0001_0000300041_0000001_0_af2pred_dldesign_0_af2pred (protein)
chain: SSSSSPTRKEVEKLIEEAKALKAAGKRREALETLEKAKKLADENDDEELEEEIEKLVKELSSSSS
B10: il2ra_site1_3nfp_normal_mot_HHH_b1_03420_af2_000000029_0001_41_57_H_._HHH_b2_02212_af2_0001_0000200013_0000001_0 (protein)
chain: SSSSDAAQRADRLLRELLEALKEGDEELIERLREEIKRLAEEANSRLLEYLLKELEKLLGSSSSS
B11: il2ra_site2_3nfp_normal_mot_HHH_b1_06677_000000111_0001_20_36_H_._HHH_b2_06317_0001_0000200029_0000001_1 (protein)
chain: SSSDETEERVEELLREVEKLIKEGNEEEAKRVLSEAALVAAEGRDHEAFMLVNELLARLARSSSS
B12: il2ra_site1_2b5i_sap_10_mot_HHH_b1_02496_000000173_0001_1_19_H_._ems_3hM_482_af2_0001_0000700026_0000001_0_0001_af2pred_dldesign_0_af2pred (protein)
chain: SSSSDEKYEEVERLFDEATELYRAGKREEAKELLEKALELAKEAGEEKIVKELETLLKRLESSSS
B13: il2ra_site2_2erj_sap_18_mot_af86707857d369f3e1d85dcabc5f9321_0001_000000201_0001_14_29_H_._HHH_b2_03212_af2_0001_0000400015_0000001_0_0001 (protein)
chain: SSSLHETYELAVEATHLIARLLEEGNPEEAEKVLEEFLKRLEELDDPNAARLLQETFEVQKSSSS
B14: il2ra_site1_3nfp_sap_20_mot_HHH_b2_03042_af2_000000210_0001_23_39_H_._HEEHE_1101_0001_0000200023_0000001_0_0001_af2pred_0001_af2pred_1 (protein)
chain: SSEELLEELVEITVENNSPHVLRKILRALEAFLGDPEEAERLLEELIEKVLGDPEEAERLVREAK
B15: il2ra_site2_2erj_sap_30_mot_HHH_b2_03659_000000135_0001_38_56_H_._HHH_b2_07963_0001_0000300032_0000001_0_0001 (protein)
chain: SSSSSDLRELFRLASELMRAIHEGDEELFRELVEEIRRLAEETNSENAREILEWLEKHFHSSSSS
B16: il2ra_site1_3nfp_normal_mot_16934e337390fad51c35c10e6cd388ee_0001_1_000000171_0001_52_65_H_._HHH_b1_02546_af2_0001_0000100012_0000001_0 (protein)
chain: SSSSDEVKEADRIAREILELKKQGNHEEARRLLEELKEFAEERNDKILEKFVKQLEELLKSSSSS
B17: il2ra_site1_2b5i_sap_14_mot_HHH_b2_06557_000000121_0001_42_56_H_._HHH_b1_07957_0001_0000300032_0000001_1_0001_af2pred_0001_af2pred_1 (protein)
chain: SSSSDEERAEELVEDLLELAKKIDDPKRALNIVLLALATAKKKNNEELEEEVERVLEELRSSSSS
B18: il2ra_site2_2erj_normal_mot_HHH_b1_00941_000000060_0001_45_58_H_._HHH_b2_00695_0001_0000400014_0000001_0_af2pred_0001_1_af2pred_swapped (protein)
chain: SSSSSSDVEERVEELLEEAEKIKDKREAAKVLEEASKLAARNNNEELLELIDEVFRRLSSSSSSS
B19: il2ra_site2_3nfp_normal_mot_HHH_b1_03818_000000217_0001_1_20_H_._HHH_b1_07779_af2_0001_0000100024_0000001_0 (protein)
chain: SSSSDEEEERILRLLIEIYELLKKGDPEEAKELIKEAHELIRELGDEQLEKLLKIAEEAVHSSSS

Biological target: il2ra, P01589
Test: yeast display titration

Binder	apparent Kd
B1	inactive: no binding seen
B2	inactive: no binding seen
B3	inactive: no binding seen
B4	inactive: no binding seen
B5	inactive: no binding seen
B6	inactive: no binding seen
B7	inactive: no binding seen
B8	inactive: no binding seen
B9	inactive: no binding seen
B10	inactive: no binding seen
B11	inactive: no binding seen
B12	inactive: no binding seen
B13	inactive: no binding seen
B14	inactive: no binding seen
B15	inactive: no binding seen
B16	inactive: no binding seen
B17	inactive: no binding seen
B18	inactive: no binding seen
B19	inactive: no binding seen

Reprinted at random: two entries already listed, in no set order.
Binder	apparent Kd
B13	inactive: no binding seen
B12	inactive: no binding seen
